Assay results published in publication PMC9769124.
Results are given in words; binding and its absence hold for the method and conditions named. In cells and extracts the contact can be indirect. Some binding calls cover weakened binding; strength is not graded here.

Chains of the proteins cited; added tags and fusions are not shown.
UniProt Q9HCE7: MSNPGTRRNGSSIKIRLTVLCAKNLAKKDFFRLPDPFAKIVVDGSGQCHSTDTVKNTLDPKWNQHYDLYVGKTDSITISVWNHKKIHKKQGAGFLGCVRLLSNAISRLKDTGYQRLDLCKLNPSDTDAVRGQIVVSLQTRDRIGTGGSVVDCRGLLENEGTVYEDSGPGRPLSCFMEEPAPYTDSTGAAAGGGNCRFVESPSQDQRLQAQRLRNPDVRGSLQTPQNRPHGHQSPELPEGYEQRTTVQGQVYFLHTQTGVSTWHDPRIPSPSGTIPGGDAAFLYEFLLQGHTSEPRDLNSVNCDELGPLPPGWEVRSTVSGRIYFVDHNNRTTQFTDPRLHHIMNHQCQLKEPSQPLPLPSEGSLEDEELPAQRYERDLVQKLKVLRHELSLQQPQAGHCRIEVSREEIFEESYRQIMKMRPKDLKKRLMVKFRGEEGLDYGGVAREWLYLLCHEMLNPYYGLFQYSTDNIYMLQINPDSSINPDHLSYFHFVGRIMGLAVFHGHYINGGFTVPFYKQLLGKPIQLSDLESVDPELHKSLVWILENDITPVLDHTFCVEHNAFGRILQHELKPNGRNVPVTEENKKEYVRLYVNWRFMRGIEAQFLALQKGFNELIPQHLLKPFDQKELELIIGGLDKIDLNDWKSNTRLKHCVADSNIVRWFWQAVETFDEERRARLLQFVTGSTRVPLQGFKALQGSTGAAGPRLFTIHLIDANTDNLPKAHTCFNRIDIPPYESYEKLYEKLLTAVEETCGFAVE
UniProt Q8WUY9: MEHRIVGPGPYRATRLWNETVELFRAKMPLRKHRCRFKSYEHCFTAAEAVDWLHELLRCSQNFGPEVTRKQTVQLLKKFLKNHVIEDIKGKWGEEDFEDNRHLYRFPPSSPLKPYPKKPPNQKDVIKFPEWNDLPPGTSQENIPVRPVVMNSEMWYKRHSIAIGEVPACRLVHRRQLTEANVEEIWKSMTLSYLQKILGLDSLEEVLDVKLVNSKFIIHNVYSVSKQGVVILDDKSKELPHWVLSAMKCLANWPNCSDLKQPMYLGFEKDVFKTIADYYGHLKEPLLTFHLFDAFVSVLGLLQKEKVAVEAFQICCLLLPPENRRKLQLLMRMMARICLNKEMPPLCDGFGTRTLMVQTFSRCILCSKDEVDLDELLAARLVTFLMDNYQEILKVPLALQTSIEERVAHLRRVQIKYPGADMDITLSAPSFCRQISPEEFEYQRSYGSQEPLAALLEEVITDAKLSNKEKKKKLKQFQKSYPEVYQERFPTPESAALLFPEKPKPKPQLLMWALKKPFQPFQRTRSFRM

Biological target: SMURF1 (human) (UniProt Q9HCE7)
Assay: co-IP; cell lysate, 1.0-1.2 mg protein; precipitated with IgG (control) or SMURF1 antibody and protein A/G beads; immunoblot

In the case of “DEP domain-containing protein 1B (from UniProt Q8WUY9 1-529)”, the binding is reported as “binds”.
